PubChem BioAssay AID1259308 | NCATS | 2017

Aim: 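Candidate targets for better recombinant protein yield in mammalian cells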 (primary screen)
System: human HEK293 embryonic kidney cells stably expressing firefly luciferase (HEK-CMV-Luc2-Hygro)
Reagents: single siRNA against human genes, 0.8 pmol siRNA per well
Time to read-out: 72 h
Read-out: 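Luciferase light (ONE-Glo) measured on one replicate plate set and viability (CellTiter-Glo) on the other, scaled to a negative control siRNA, with robust z-scores and luciferase per cell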
Scale: total luciferase, z-score and total luciferase, % of control: higher = more reporter protein produced; luciferase per cell, z-score: higher = more reporter output per viable cell; viable cells, % of control: higher = more viable cells
Rule for the call: 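Active when the median/MAD z-score for overall luciferase is greater than 3; a gene was taken forward for validation with new siRNAs if at least two of its three siRNAs passed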
Calls: active = raised luciferase; inactive = no rise
Shown is one part, drawn at random, of about 59,000 reagents tested. In the full data, about 1,510 (2.6%) are marked active. 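Calls use total luciferase alone and ignore viability, so some active siRNAs may act by altering cell number.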 The numbers tell different reagents against one gene apart. No sequences are given here.

Target gene | siRNA no. | total luciferase, z-score | total luciferase, % of control | luciferase per cell, z-score | viable cells, % of control | outcome
GSG1 | 1 | 0.0834 | 83.5 | -0.114 | 96.2 | inactive
GSG1 | 2 | -3.34 | 15.4 | -3.15 | 39.5 | inactive
GSG1 | 3 | -0.802 | 65.9 | -1.33 | 104 | inactive
LIN7C | 1 | 0.387 | 89.6 | -0.0829 | 102 | inactive
LIN7C | 2 | 0.16 | 85.1 | -0.113 | 97.9 | inactive
LIN7C | 3 | 2.9 | 140 | 2.52 | 80.3 | inactive
HMGN2P20 | 1 | 0.637 | 94.6 | 0.0372 | 105 | inactive
HMGN2P20 | 2 | 0.0588 | 83.1 | 0.514 | 81.1 | inactive
HMGN2P20 | 3 | 0.389 | 89.6 | 0.712 | 83 | inactive
SH2D2A | 1 | -0.77 | 66.6 | -0.76 | 90.9 | inactive
SH2D2A | 2 | 1.03 | 102 | 2.82 | 54.4 | inactive
SH2D2A | 3 | -0.153 | 78.8 | 0.0101 | 87.9 | inactive
OR1L6 | 1 | -0.0286 | 81.3 | 0.404 | 81.7 | inactive
OR1L6 | 2 | -0.751 | 66.9 | -0.175 | 78.3 | inactive
OR1L6 | 3 | 3.08 | 143 | 2.92 | 74.2 | active
CCDC148 | 1 | 2.24 | 126 | 2.18 | 79.6 | inactive
CCDC148 | 2 | 0.635 | 94.5 | 0.811 | 85.3 | inactive
CCDC148 | 3 | -0.759 | 66.8 | -0.418 | 83.3 | inactive
KIF21B | 1 | -0.0163 | 81.6 | -0.604 | 107 | inactive
KIF21B | 2 | 0.0963 | 83.8 | 0.901 | 73.9 | inactive
KIF21B | 3 | -0.0115 | 81.7 | -0.209 | 96.4 | inactive
SNX13 | 1 | -0.324 | 75.4 | -0.403 | 93.7 | inactive
SNX13 | 2 | -0.618 | 69.6 | -0.67 | 92.8 | inactive
SNX13 | 3 | 0.266 | 87.2 | -0.017 | 97.8 | inactive
COL6A5 | 1 | 1.96 | 121 | 1.95 | 80.8 | inactive
COL6A5 | 2 | 1.42 | 110 | 1.53 | 82.1 | inactive
COL6A5 | 3 | 1.13 | 104 | 1.34 | 81.9 | inactive
IFT172 | 1 | 0.622 | 94.3 | 2.45 | 55.3 | inactive
IFT172 | 2 | 0.459 | 91 | 0.219 | 96 | inactive
IFT172 | 3 | -0.904 | 63.9 | -1.43 | 104 | inactive
NOTCH4 | 1 | -0.111 | 79.7 | -0.236 | 94.8 | inactive
NOTCH4 | 2 | 0.238 | 86.6 | 0.215 | 91.5 | inactive
NOTCH4 | 3 | -1.76 | 46.8 | 0.791 | 42.5 | inactive
OR10P1 | 1 | 4.64 | 174 | 4.35 | 61.9 | active
OR10P1 | 2 | -0.354 | 74.9 | -0.0244 | 84.2 | inactive
OR10P1 | 3 | 4.13 | 164 | 2.64 | 91.5 | active
PRRX2 | 1 | -0.448 | 73 | -0.835 | 102 | inactive
PRRX2 | 2 | -1.47 | 52.7 | -0.309 | 63.9 | inactive
PRRX2 | 3 | 0.729 | 96.4 | 1.51 | 72.4 | inactive
TPRA1 | 1 | 0.893 | 99.7 | 1.78 | 69.6 | inactive
TPRA1 | 2 | 1.44 | 111 | 1.65 | 79.9 | inactive
TPRA1 | 3 | -1.93 | 43.4 | -2.81 | 102 | inactive
SCARF2 | 1 | 0.662 | 95.1 | 0.23 | 100 | inactive
SCARF2 | 2 | 0.224 | 86.3 | 0.0741 | 94.6 | inactive
SCARF2 | 3 | 1.33 | 108 | 0.861 | 96.5 | inactive
IRGC | 1 | 1.74 | 117 | 1.27 | 93.2 | inactive
IRGC | 2 | -0.478 | 72.4 | -0.545 | 93.4 | inactive
IRGC | 3 | 0.861 | 99 | 0.781 | 90.1 | inactive
TOGARAM1 | 1 | 0.326 | 88.4 | -0.0218 | 99.3 | inactive
TOGARAM1 | 2 | 2.12 | 124 | 1.03 | 106 | inactive
TOGARAM1 | 3 | -0.42 | 73.5 | -0.631 | 97 | inactive
KRT83 | 1 | 1.13 | 104 | 0.707 | 96.8 | inactive
KRT83 | 2 | 0.311 | 88.1 | 0.603 | 84 | inactive
KRT83 | 3 | 0.509 | 92 | 1.37 | 71.7 | inactive
KRT83 | 4 | -1.28 | 56.4 | -0.858 | 79 | inactive
KRT83 | 5 | 0.767 | 97.1 | 1.29 | 77.2 | inactive
KRT83 | 6 | -0.873 | 64.5 | -1.48 | 107 | inactive

7 consecutive entries from above:
Target gene | siRNA no. | total luciferase, z-score | total luciferase, % of control | luciferase per cell, z-score | viable cells, % of control | outcome
SH2D2A | 2 | 1.03 | 102 | 2.82 | 54.4 | inactive
SH2D2A | 3 | -0.153 | 78.8 | 0.0101 | 87.9 | inactive
OR1L6 | 1 | -0.0286 | 81.3 | 0.404 | 81.7 | inactive
OR1L6 | 2 | -0.751 | 66.9 | -0.175 | 78.3 | inactive
OR1L6 | 3 | 3.08 | 143 | 2.92 | 74.2 | active
CCDC148 | 1 | 2.24 | 126 | 2.18 | 79.6 | inactive
CCDC148 | 2 | 0.635 | 94.5 | 0.811 | 85.3 | inactive
